Results are given in words; binding and its absence hold for the method and conditions named. For some of these results: Binding calls can cover weak binding; strength is not graded here.

By UniProt entry, the sequences of proteins in these tests, tags left out. Where a name states a change or a piece, a line headed by the entry shows the natural chain unless it says otherwise.
UniProt A8DY81: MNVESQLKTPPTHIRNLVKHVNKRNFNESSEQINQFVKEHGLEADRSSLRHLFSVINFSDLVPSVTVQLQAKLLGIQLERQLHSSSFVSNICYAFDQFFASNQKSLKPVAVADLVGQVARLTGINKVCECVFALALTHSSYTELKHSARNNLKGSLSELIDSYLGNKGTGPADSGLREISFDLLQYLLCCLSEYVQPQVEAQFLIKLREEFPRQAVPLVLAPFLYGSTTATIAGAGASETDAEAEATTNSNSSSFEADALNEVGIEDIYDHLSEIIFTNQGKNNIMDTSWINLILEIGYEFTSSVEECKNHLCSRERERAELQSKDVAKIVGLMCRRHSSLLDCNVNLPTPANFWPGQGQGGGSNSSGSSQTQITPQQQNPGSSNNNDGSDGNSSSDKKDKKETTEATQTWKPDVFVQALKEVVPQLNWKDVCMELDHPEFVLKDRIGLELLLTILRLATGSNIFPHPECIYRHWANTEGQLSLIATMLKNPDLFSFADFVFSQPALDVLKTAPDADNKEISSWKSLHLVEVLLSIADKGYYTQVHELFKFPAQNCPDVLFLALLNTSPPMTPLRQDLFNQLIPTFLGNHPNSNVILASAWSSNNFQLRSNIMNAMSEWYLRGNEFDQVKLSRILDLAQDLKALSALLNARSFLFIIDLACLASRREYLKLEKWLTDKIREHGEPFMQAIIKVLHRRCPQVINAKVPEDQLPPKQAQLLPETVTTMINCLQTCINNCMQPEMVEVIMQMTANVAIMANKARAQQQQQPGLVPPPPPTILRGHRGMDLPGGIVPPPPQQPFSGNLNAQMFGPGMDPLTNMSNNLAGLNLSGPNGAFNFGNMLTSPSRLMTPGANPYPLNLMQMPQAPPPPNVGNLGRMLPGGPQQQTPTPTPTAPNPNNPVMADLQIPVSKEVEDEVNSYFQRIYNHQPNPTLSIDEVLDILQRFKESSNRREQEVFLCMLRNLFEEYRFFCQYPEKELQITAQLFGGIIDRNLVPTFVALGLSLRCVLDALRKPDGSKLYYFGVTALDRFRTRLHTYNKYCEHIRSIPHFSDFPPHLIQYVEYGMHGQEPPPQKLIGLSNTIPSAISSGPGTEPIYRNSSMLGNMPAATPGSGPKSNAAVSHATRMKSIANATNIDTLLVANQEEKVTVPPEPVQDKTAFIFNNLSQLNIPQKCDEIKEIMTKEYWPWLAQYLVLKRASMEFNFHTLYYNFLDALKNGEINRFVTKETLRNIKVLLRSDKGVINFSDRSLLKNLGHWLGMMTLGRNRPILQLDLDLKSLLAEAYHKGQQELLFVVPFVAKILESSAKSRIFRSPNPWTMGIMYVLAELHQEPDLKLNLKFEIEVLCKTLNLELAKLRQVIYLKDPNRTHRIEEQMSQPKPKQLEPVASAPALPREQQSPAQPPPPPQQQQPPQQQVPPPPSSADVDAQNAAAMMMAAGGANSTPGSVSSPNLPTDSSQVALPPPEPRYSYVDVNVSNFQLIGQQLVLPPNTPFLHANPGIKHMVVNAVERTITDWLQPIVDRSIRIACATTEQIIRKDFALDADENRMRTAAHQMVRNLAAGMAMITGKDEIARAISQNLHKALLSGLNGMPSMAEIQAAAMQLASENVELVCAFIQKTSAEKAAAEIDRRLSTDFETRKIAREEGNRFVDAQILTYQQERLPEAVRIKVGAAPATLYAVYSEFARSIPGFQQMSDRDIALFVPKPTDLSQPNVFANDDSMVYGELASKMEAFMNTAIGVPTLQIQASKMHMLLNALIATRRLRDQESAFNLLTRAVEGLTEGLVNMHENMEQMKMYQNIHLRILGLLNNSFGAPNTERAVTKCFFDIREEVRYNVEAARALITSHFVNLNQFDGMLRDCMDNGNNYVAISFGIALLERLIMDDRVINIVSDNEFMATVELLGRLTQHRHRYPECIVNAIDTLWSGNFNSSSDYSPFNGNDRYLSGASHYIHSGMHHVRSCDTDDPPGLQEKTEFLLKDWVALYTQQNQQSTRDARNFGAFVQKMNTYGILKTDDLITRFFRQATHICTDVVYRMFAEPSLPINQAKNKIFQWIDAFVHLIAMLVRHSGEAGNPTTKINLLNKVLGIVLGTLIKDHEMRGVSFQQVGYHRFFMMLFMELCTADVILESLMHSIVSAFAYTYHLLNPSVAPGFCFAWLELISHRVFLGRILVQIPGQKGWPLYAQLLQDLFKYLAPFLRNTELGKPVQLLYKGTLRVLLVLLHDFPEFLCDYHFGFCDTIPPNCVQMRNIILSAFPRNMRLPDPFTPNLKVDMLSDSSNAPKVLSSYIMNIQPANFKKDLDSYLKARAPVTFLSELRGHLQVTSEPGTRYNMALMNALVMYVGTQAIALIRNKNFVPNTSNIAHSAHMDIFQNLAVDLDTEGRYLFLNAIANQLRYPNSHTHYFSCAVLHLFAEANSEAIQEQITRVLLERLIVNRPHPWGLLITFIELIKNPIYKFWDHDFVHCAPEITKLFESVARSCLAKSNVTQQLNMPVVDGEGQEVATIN
UniProt A0A0B4KEC4: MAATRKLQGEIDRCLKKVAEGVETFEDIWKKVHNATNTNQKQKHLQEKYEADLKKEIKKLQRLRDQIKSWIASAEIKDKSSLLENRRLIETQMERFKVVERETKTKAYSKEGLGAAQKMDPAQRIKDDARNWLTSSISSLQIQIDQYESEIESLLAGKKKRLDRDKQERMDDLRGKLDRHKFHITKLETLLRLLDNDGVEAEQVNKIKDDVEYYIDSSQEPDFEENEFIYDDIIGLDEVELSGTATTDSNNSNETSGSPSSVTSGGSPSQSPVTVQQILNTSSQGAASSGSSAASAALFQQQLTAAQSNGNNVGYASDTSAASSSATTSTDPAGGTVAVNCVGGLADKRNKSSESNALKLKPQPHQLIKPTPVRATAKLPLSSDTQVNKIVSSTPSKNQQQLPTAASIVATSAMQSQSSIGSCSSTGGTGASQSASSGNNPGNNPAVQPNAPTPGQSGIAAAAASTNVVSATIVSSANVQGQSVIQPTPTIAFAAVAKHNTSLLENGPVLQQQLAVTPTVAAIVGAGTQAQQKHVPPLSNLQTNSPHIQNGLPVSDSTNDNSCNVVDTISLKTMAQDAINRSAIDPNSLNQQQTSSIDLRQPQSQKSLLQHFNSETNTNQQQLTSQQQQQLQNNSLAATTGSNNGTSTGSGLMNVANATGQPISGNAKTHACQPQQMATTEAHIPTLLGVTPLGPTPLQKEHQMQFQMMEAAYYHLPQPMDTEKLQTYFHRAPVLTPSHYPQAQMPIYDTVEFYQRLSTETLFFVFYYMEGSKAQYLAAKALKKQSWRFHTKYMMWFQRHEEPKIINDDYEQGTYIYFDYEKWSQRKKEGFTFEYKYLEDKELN

Holding throughout (assay): ReLo
The target of test [1] is T1, NOT2 (subunit of the Drosophila CCR4-NOT core complex) (Drosophila) (UniProt Q94547).
T1 sequence: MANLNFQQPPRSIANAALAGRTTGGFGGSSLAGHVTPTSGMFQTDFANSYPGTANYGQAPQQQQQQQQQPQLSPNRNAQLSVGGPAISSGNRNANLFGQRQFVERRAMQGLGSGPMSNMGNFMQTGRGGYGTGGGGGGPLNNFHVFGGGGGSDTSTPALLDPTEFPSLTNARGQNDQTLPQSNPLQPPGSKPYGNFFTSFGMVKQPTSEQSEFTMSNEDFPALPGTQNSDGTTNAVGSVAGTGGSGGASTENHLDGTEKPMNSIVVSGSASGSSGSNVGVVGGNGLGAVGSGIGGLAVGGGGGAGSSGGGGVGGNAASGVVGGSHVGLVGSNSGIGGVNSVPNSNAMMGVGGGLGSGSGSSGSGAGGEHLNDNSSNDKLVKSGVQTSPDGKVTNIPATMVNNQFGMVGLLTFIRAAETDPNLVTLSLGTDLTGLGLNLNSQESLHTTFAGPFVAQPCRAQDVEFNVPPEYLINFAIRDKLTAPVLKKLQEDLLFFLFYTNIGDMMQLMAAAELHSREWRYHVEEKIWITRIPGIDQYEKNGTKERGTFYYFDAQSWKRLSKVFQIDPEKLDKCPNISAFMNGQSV

The target in test [2] is NOT1 (subunit of the Drosophila CCR4-NOT core complex) (Drosophila) (UniProt A8DY81).
Test [3] addresses CAF40 (subunit of the Drosophila CCR4-NOT core complex) (Drosophila).
Test [4] has as its target CAF40 V186E (CAF40 MUT) (Drosophila).
Test [5] addresses NOT3 (subunit of the Drosophila CCR4-NOT core complex) (Drosophila).
The target of test [6] is CAF1 (subunit of the Drosophila CCR4-NOT core complex) (Drosophila).
Test [7] addresses CCR4 (subunit of the Drosophila CCR4-NOT core complex) (Drosophila).

In the case of Drosophila Roquin, the binding result in test [1] is “no binding”.
Take “CAF40 (subunit of the Drosophila CCR4-NOT core complex)”: in test [1], the binding result was “no binding”.
Regarding “NOT3 (subunit of the Drosophila CCR4-NOT core complex) (from UniProt A0A0B4KEC4)”, in test [2], the binding result was “binds”.
For “CCR4 (subunit of the Drosophila CCR4-NOT core complex)”, the binding result in test [1] was “no binding”.

B1: Nanos Δ140-160 (deletion of the CAF40-binding α-helix) (protein, UniProt P25724)
chain: MFRSNLEGSGAAAVGVANPPSLAQSGKIFQLQDNFSAFHARGGLNILGLQDMYLDTSGANSSATLSPPITPVTPDPSTSAQSTHFPFLADSAATANSLLMQRQYHYHLLLQQQQQLAMAQHQLALAASAAAASASHQQTAGSMQDVMQEFATNGYASDDLGRMSYGSAPPQVQMPPQQQHQQQQGLHLPLGRNPAQLQTNGGNLMPIPLATHWLNNYREHLNNVWRNMSYIPAAPNTMGLQAQTAATVSTNLGVGMGLGLPVQGEQLRGASNSSNNNNNNNKVYKRYNSKAKEISRHCVFCENNNEPEAVINSHSVRDNFNRVLCPKLRTYVCPICGASGDSAHTIKYCPKKPIITMEDAIKAESFRLAKSSYYKQQMKV
Turning to B1, the binding entry in test [3] is given as “no binding”.

B2: Drosophila Nanos (protein, UniProt P25724 1-401)
chain: MFRSNLEGSGAAAVGVANPPSLAQSGKIFQLQDNFSAFHARGGLNILGLQDMYLDTSGANSSATLSPPITPVTPDPSTSAQSTHFPFLADSAATANSLLMQRQYHYHLLLQQQQQLAMAQHQLALAASAAAASASHQQTDEIARSLKIFAQVTTGAAENAAGSMQDVMQEFATNGYASDDLGRMSYGSAPPQVQMPPQQQHQQQQGLHLPLGRNPAQLQTNGGNLMPIPLATHWLNNYREHLNNVWRNMSYIPAAPNTMGLQAQTAATVSTNLGVGMGLGLPVQGEQLRGASNSSNNNNNNNKVYKRYNSKAKEISRHCVFCENNNEPEAVINSHSVRDNFNRVLCPKLRTYVCPICGASGDSAHTIKYCPKKPIITMEDAIKAESFRLAKSSYYKQQMKV
B2: the binding entry in test [4] was “no binding”; in test [3], “binds”; in test [5], “no binding”.

B3: Drosophila Cup (protein, UniProt Q9VMA3 1-1117)
chain: MQMAEAEQENGAGALKIATNAGATDRPAHQQLPLPVEDQQDEVLTPAEKGKFEYPPPPPPPTPVQAPLATKATALNASQEHDDDEANSEKWEDPCAPPPPPPLPTSAFLATGLGYLKLPAFKLKDALEKAITKLEANKRTLKASPESSRSIKNKNVVALEMLPRRSNPETIGDGSMLASTSTAVMLQTKKPAVIVEMERRCKIINLLAKQNQILESISGEAIPMHGPSKHLHEDEGLTLQVLSARASTPYTQPSSMLSCTAVSCDLEHDSPRKQVASKEAVPEQQSSQVQQKRPPSTGIHKPGSLRAPKAVRPTTAPVVSSKPVKSYTRSRLMDIRNGMFNALMHRSKESFVMPRIATCDDIELEGRLRRMNIWRTSDGTRFRTRSTTANLNMNNNNNNECMPAFFKNKNKPNLISDESIIQSQPPQPQTEFQDPAIVNQRRIGSGRLNHSKWGYNDEDYHSYHNGKSQHMEEVNSKNSKNMTVLQFFDNGEISSQPQRRPNTPVMGMSINRSENDTLHSNESSEDLSRANENYVKRVMSGFLVVSKPKSRDVEDRHHRRYRNQNEEPEWFSCGPTSRLDTIELCGFDEDEEKMLKEGNKNHGLGETERETSKQKMDHKYKWTHAEPMGRSKYMPKHDTNNNHNVENMNNVMATEHQQQKEEKRPGSGRSFQFDKFNQSQQNYESSSYVNHQQPPQTQPQQMQQQSNTNTNNSKFMSFFANEGNSSSSSLNEFFKQAINQGHGNNPEQPKSLGHIGQMPSVDQLEAKWRRNSLNNVGETANKQTDNFQKLIGSLSSAKPQSQAVGYDAISNFIMQQQQYQQQQQKQHLIIQQQQQHTAFLASLQLKAILGRADTQLLLLRLTKGEISKHGLLVQLANPRLTDMDREAITAVLQFTNTQQQQQQHKQQLDMLSSTVIASQLQNLHNLAIVQQTLAARQQPQHNPQTQAPHQLSQEDLQAHANVIMRNAVMKRKIEEQTSKLINGGAKHQAQQQYLNRGQQRQARPDANSNALLHALISGGGNNHASGYPMNGQPQKHHSNLRFGDNQNFQSFESNQPHFATQYKQQYQQSQQQHPHQQPQQLNSLHQNNAGAVNSFNKAQMQAQSAISMLPNSGDEFH
Take B3: the binding result in test [6], in test [7], in test [3] and in test [5] was “no binding” in each case.

B4: NOT2 (subunit of the Drosophila CCR4-NOT core complex) (protein, UniProt Q94547 1-585)
chain: MANLNFQQPPRSIANAALAGRTTGGFGGSSLAGHVTPTSGMFQTDFANSYPGTANYGQAPQQQQQQQQQPQLSPNRNAQLSVGGPAISSGNRNANLFGQRQFVERRAMQGLGSGPMSNMGNFMQTGRGGYGTGGGGGGPLNNFHVFGGGGGSDTSTPALLDPTEFPSLTNARGQNDQTLPQSNPLQPPGSKPYGNFFTSFGMVKQPTSEQSEFTMSNEDFPALPGTQNSDGTTNAVGSVAGTGGSGGASTENHLDGTEKPMNSIVVSGSASGSSGSNVGVVGGNGLGAVGSGIGGLAVGGGGGAGSSGGGGVGGNAASGVVGGSHVGLVGSNSGIGGVNSVPNSNAMMGVGGGLGSGSGSSGSGAGGEHLNDNSSNDKLVKSGVQTSPDGKVTNIPATMVNNQFGMVGLLTFIRAAETDPNLVTLSLGTDLTGLGLNLNSQESLHTTFAGPFVAQPCRAQDVEFNVPPEYLINFAIRDKLTAPVLKKLQEDLLFFLFYTNIGDMMQLMAAAELHSREWRYHVEEKIWITRIPGIDQYEKNGTKERGTFYYFDAQSWKRLSKVFQIDPEKLDKCPNISAFMNGQSV
Regarding B4, the binding entry in test [5] is on record as “binds”.

B5: Drosophila Bag-of-marbles (Bam) (protein, UniProt P22745 1-442)
chain: MLNARDVCPEGNDDQQLDHNFKQMEEHLALMVEGNENEDPRKATCEYEDTNEDGATCTSGVLSEIQENFGRLRLCDVTAPLLEFHGLDCLQQIQKRSRHFAFDGSPAKKSRSGGVLVTGPKQKQLQKENVWNRKSKGSASADNIEKLPITIEKLHMIGLHGDCLEHNAVLRLMNLFRSLHDHLTADLGFSRQNSMPSDYLFDMPVKSTMPKSLNVRYQLQVLCTKVERFLVQQRRTLEANRHFDFEKYDECDKLLKGFASYLDNFKLLLKPKMRNRNGNSGSNADKFHTQRMERLLIGLRDWIKAAHLSVHVFNWEMDLEHRYSGAMTESHKSLNERAILLSGAELRAAEARGISAEDLFIAQRYKLGGPIYCVLEQHEFLSALIANPETYFPPSVVAICGPQKLGAVSMEQPSASEEEFEETEEVPSSPPRHTGRVPRFRS
In the case of B5, the binding result in test [6] is on record as “no binding”; in test [4], “no binding”; in test [7], “no binding”; in test [3], “binds”; in test [5], “no binding”.

B6: Bam M24E (Bam MUT) (protein, UniProt P22745 1-442)
chain: MLNARDVCPEGNDDQQLDHNFKQEEEHLALMVEGNENEDPRKATCEYEDTNEDGATCTSGVLSEIQENFGRLRLCDVTAPLLEFHGLDCLQQIQKRSRHFAFDGSPAKKSRSGGVLVTGPKQKQLQKENVWNRKSKGSASADNIEKLPITIEKLHMIGLHGDCLEHNAVLRLMNLFRSLHDHLTADLGFSRQNSMPSDYLFDMPVKSTMPKSLNVRYQLQVLCTKVERFLVQQRRTLEANRHFDFEKYDECDKLLKGFASYLDNFKLLLKPKMRNRNGNSGSNADKFHTQRMERLLIGLRDWIKAAHLSVHVFNWEMDLEHRYSGAMTESHKSLNERAILLSGAELRAAEARGISAEDLFIAQRYKLGGPIYCVLEQHEFLSALIANPETYFPPSVVAICGPQKLGAVSMEQPSASEEEFEETEEVPSSPPRHTGRVPRFRS
Turning to B6, the binding entry in test [3] is on record as “no binding”.
